{"sequences": {"note": "Chains of the proteins cited; added tags and fusions are not shown. Residues count along the entry.", "UniProt Q01974, residues 34-943": "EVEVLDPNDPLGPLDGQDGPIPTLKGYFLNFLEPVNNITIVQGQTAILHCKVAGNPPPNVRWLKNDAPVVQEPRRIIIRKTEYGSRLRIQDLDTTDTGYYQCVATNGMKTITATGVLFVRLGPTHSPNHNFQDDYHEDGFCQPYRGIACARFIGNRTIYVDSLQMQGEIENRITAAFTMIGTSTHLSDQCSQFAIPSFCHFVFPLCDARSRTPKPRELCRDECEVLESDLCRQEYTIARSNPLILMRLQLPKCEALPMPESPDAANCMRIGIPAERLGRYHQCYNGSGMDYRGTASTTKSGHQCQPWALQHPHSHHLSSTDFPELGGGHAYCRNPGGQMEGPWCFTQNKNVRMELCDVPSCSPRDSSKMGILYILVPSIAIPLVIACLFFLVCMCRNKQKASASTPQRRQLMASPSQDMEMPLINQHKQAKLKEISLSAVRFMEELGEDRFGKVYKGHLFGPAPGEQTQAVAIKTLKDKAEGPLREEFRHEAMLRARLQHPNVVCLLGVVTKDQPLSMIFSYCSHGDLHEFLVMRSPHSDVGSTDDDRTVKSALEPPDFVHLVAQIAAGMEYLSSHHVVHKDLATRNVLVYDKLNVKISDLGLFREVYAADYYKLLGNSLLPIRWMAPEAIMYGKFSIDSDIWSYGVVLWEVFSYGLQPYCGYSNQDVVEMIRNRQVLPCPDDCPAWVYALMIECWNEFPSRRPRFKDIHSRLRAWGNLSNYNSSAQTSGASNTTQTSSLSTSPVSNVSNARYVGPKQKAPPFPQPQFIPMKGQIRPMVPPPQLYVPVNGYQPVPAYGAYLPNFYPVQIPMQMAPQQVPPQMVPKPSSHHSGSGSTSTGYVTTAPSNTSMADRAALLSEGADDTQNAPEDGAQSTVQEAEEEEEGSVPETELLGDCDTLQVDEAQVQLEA"}, "source": "paper PMC4799797", "target": "Flag-tagged ROR2 (UniProt Q01974)", "experiment": "co-IP; MCF-7 cells co-transfected with ROR2-Flag and Dvl1-myc, Dvl2-myc or Dvl3-myc; 24 h later stimulated 45 min with control supernatant or Wnt5a-conditioned medium; lysis in 10 mM HEPES pH 7.4, 150 mM NaCl, 0.5 % NP-40, 0.5 % OGP; immunoprecipitation with anti-Flag antibody and anti-Flag M2 magnetic beads; detection with anti-myc and anti-Flag", "note": "No constants are given. Whether binding was seen depends on the method and setting. In cells and extracts the contact can be indirect. Some entries that bind do so weakly or less than the wild type. Where a sequence is shown, tags or fusion partners need not be part of it."}
{"binder": "myc-tagged Dvl1 (protein, UniProt O14640 1-695) MAETKIIYHMDEEETPYLVKLPVAPERVTLADFKNVLSNRPVHAYKFFFKSMDQDFGVVKEEIFDDNAKLPCFNGRVVSWLVLAEGAHSDAGSQGTDSHTDLPPPLERTGGIGDSRPPSFHPNVASSRDGMDNETGTESMVSHRRERARRRNREEAARTNGHPRGDRRRDVGLPPDSASTALSSELESSSFVDSDEDGSTSRLSSSTEQSTSSRLIRKHKRRRRKQRLRQADRASSFSSITDSTMSLNIVTVTLNMERHHFLGISIVGQSNDRGDGGIYIGSIMKGGAVAADGRIEPGDMLLQVNDVNFENMSNDDAVRVLREIVSQTGPISLTVAKCWDPTPRSYFTVPRADPVRPIDPAAWLSHTAALTGALPRYGTSPCSSAVTRTSSSSLTSSVPGAPQLEEAPLTVKSDMSAVVRVMQLPDSGLEIRDRMWLKITIANAVIGADVVDWLYTHVEGFKERREARKYASSLLKHGFLRHTVNKITFSEQCYYVFGDLCSNLATLNLNSGSSGTSDQDTLAPLPHPAAPWPLGQGYPYQYPGPPPCFPPAYQDPGFSYGSGSTGSQQSEGSKSSGSTRSSRRAPGREKERRAAGAGGSGSESDHTAPSGVGSSWRERPAGQLSRGSSPRSQASATAPGLPPPHPTTKAYTVVGGPPGGPPVRELAAVPPELTGSRQSFQKAMGNPCEFFVDIM", "values": [{"measurement": "binding", "result": "binds"}]}
